From the supplement of paper PMC6078165

Tested on: MDAMB436
Experiment: relative JC-1 red fluorescence (viability) vs pre-drug, coculture with fibroblast (fraction); higher = more viable cancer cells
Method: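 JC-1 labelled TNBC cells cocultured 1:1 (1,500 cells each) with CellTrace Violet stained primary or stromal fibroblasts in 384-well plates in FluoroBrite medium, treated with one of 42 anticancer drugs at 0.1, 1, 10 or 100 uM. JC-1 red fluorescence (mitochondrial integrity in cancer cells only) was read by plate reader every 8 h for 72 h. Values are normalised to each well's pre-drug value. The stock of one drug was tenfold lower, so its dose labels may be too high.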

O=C(O)C(=O)O.[NH-][C@@H]1CCCC[C@H]1[NH-].[Pt+2] [Oxaliplatin]
relative JC-1 red fluorescence
Conditions | 8 h | 16 h | 24 h | 32 h | 40 h | 48 h | 56 h | 64 h | 72 h
10 µM, coculture fibroblast: C12385 | 0.762 ± 0.0096 | 0.6941 ± 0.0025 | 0.66 ± 0.017 | 0.58 ± 0.028 | 0.538 ± 0.039 | 0.507 ± 0.038 | 0.486 ± 0.045 | 0.471 ± 0.056 | 0.461 ± 0.058
10 µM, coculture fibroblast: H6013 | 0.8037 ± 0.0034 | 0.7663 ± 0.004 | 0.755 ± 0.011 | 0.75 ± 0.012 | 0.736 ± 0.011 | 0.762 ± 0.012 | 0.731 ± 0.015 | 0.721 ± 0.021 | 0.688 ± 0.03
10 µM, coculture fibroblast: H6019 | 0.764 ± 0.013 | 0.719 ± 0.022 | 0.723 ± 0.034 | 0.664 ± 0.042 | 0.643 ± 0.044 | 0.632 ± 0.046 | 0.622 ± 0.052 | 0.613 ± 0.052 | 0.593 ± 0.052
10 µM, coculture fibroblast: H6076 | 0.676 ± 0.0068 | 0.6229 ± 0.0014 | 0.618 ± 0.0076 | 0.581 ± 0.012 | 0.593 ± 0.014 | 0.577 ± 0.008 | 0.59979 ± 0.00036 | 0.602 ± 0.0043 | 0.6 ± 0.0061
10 µM, coculture fibroblast: H6231 | 0.703 ± 0.024 | 0.585 ± 0.049 | 0.656 ± 0.058 | 0.578 ± 0.06 | 0.583 ± 0.079 | 0.565 ± 0.066 | 0.569 ± 0.062 | 0.557 ± 0.068 | 0.555 ± 0.054
10 µM, coculture fibroblast: HADF | 0.79 ± 0.049 | 0.771 ± 0.053 | 0.75 ± 0.061 | 0.722 ± 0.064 | 0.72 ± 0.063 | 0.758 ± 0.07 | 0.703 ± 0.07 | 0.686 ± 0.067 | 0.646 ± 0.062
10 µM, coculture fibroblast: HCFa | 0.768 ± 0.05 | 0.717 ± 0.036 | 0.683 ± 0.04 | 0.646 ± 0.039 | 0.619 ± 0.036 | 0.639 ± 0.029 | 0.573 ± 0.015 | 0.565 ± 0.017 | 0.506 ± 0.012
10 µM, coculture fibroblast: HCPF | 0.661 ± 0.081 | 0.628 ± 0.072 | 0.635 ± 0.063 | 0.568 ± 0.062 | 0.568 ± 0.052 | 0.535 ± 0.055 | 0.527 ± 0.041 | 0.51 ± 0.044 | 0.505 ± 0.032
10 µM, coculture fibroblast: HHSteC | 0.787 ± 0.015 | 0.787 ± 0.019 | 0.771 ± 0.027 | 0.743 ± 0.022 | 0.752 ± 0.026 | 0.778 ± 0.025 | 0.722 ± 0.024 | 0.705 ± 0.024 | 0.645 ± 0.023
10 µM, coculture fibroblast: HMF | 0.673 ± 0.02 | 0.6603 ± 0.0022 | 0.675 ± 0.0086 | 0.6376 ± 0.0034 | 0.646 ± 0.02 | 0.619 ± 0.027 | 0.63 ± 0.024 | 0.612 ± 0.026 | 0.604 ± 0.024
10 µM, coculture fibroblast: HPFa | 0.912 ± 0.038 | 0.865 ± 0.01 | 0.838 ± 0.0094 | 0.8014 ± 0.0062 | 0.7929 ± 0.0063 | 0.796 ± 0.011 | 0.737 ± 0.01 | 0.721 ± 0.011 | 0.665 ± 0.0097
10 µM, coculture fibroblast: HUF | 0.81 ± 0.0081 | 0.7209 ± 0.00074 | 0.6782 ± 0.0038 | 0.609 ± 0.009 | 0.557 ± 0.0083 | 0.529 ± 0.018 | 0.507 ± 0.015 | 0.497 ± 0.019 | 0.485 ± 0.022
10 µM, coculture fibroblast: Hs5 | 0.706 ± 0.016 | 0.646 ± 0.033 | 0.616 ± 0.036 | 0.565 ± 0.032 | 0.553 ± 0.028 | 0.512 ± 0.028 | 0.527 ± 0.025 | 0.503 ± 0.029 | 0.502 ± 0.031
10 µM, coculture fibroblast: Hs27A | 0.846 ± 0.037 | 0.764 ± 0.04 | 0.739 ± 0.035 | 0.714 ± 0.036 | 0.693 ± 0.026 | 0.749 ± 0.034 | 0.667 ± 0.032 | 0.662 ± 0.041 | 0.595 ± 0.035
10 µM, coculture fibroblast: Hs343T | 0.675 ± 0.031 | 0.5941 ± 0.0036 | 0.5508 ± 0.0039 | 0.4993 ± 0.0042 | 0.477 ± 0.016 | 0.452 ± 0.01 | 0.454 ± 0.018 | 0.441 ± 0.018 | 0.437 ± 0.011
10 µM, coculture fibroblast: WS1 | 0.766 ± 0.0084 | 0.693 ± 0.021 | 0.6555 ± 0.00093 | 0.571 ± 0.0072 | 0.5353 ± 0.0039 | 0.5126 ± 0.0038 | 0.495 ± 0.011 | 0.473 ± 0.018 | 0.461 ± 0.026
100 µM, coculture fibroblast: C12385 | 0.841 ± 0.0093 | 0.737 ± 0.014 | 0.7096 ± 0.0031 | 0.629 ± 0.0088 | 0.5824 ± 0.0018 | 0.557 ± 0.0014 | 0.531 ± 0.009 | 0.5076 ± 0.0029 | 0.493 ± 0.015
100 µM, coculture fibroblast: H6013 | 0.894 ± 0.032 | 0.798 ± 0.016 | 0.792 ± 0.018 | 0.774 ± 0.019 | 0.753 ± 0.03 | 0.763 ± 0.012 | 0.7249 ± 0.006 | 0.707 ± 0.01 | 0.667 ± 0.0072
100 µM, coculture fibroblast: H6019 | 0.776 ± 0.035 | 0.7265 ± 0.0063 | 0.7167 ± 0.0067 | 0.643 ± 0.0098 | 0.594 ± 0.0088 | 0.566 ± 0.0079 | 0.531 ± 0.015 | 0.504 ± 0.017 | 0.476 ± 0.013
100 µM, coculture fibroblast: H6076 | 0.821 ± 0.072 | 0.712 ± 0.084 | 0.653 ± 0.044 | 0.602 ± 0.027 | 0.566 ± 0.0073 | 0.5409 ± 0.0026 | 0.528 ± 0.028 | 0.513 ± 0.03 | 0.508 ± 0.035
100 µM, coculture fibroblast: H6231 | 0.798 ± 0.047 | 0.746 ± 0.057 | 0.663 ± 0.048 | 0.617 ± 0.025 | 0.585 ± 0.017 | 0.5402 ± 0.0026 | 0.5214 ± 0.0011 | 0.502 ± 0.0063 | 0.487 ± 0.013
100 µM, coculture fibroblast: HADF | 0.8516 ± 0.004 | 0.768 ± 0.042 | 0.774 ± 0.029 | 0.755 ± 0.035 | 0.756 ± 0.04 | 0.777 ± 0.037 | 0.718 ± 0.031 | 0.719 ± 0.034 | 0.665 ± 0.038
100 µM, coculture fibroblast: HCFa | 0.859 ± 0.013 | 0.784 ± 0.02 | 0.768 ± 0.031 | 0.756 ± 0.038 | 0.733 ± 0.059 | 0.752 ± 0.082 | 0.693 ± 0.079 | 0.69 ± 0.091 | 0.636 ± 0.097
100 µM, coculture fibroblast: HCPF | 0.782 ± 0.013 | 0.7175 ± 0.0068 | 0.648 ± 0.0095 | 0.595 ± 0.013 | 0.5667 ± 0.0013 | 0.5318 ± 0.0029 | 0.5041 ± 0.0011 | 0.494 ± 0.0066 | 0.474 ± 0.011
100 µM, coculture fibroblast: HHSteC | 0.8695 ± 0.0058 | 0.804 ± 0.0083 | 0.7888 ± 0.0066 | 0.754 ± 0.0076 | 0.746 ± 0.024 | 0.757 ± 0.028 | 0.694 ± 0.032 | 0.677 ± 0.039 | 0.627 ± 0.037
100 µM, coculture fibroblast: HMF | 0.785 ± 0.0037 | 0.707 ± 0.014 | 0.615 ± 0.016 | 0.58 ± 0.01 | 0.564 ± 0.012 | 0.532 ± 0.0082 | 0.5265 ± 0.0011 | 0.518 ± 0.0061 | 0.51 ± 0.0074
100 µM, coculture fibroblast: HPFa | 0.947 ± 0.064 | 0.873 ± 0.058 | 0.885 ± 0.064 | 0.866 ± 0.084 | 0.884 ± 0.082 | 0.917 ± 0.079 | 0.856 ± 0.084 | 0.848 ± 0.082 | 0.798 ± 0.086
100 µM, coculture fibroblast: HUF | 0.869 ± 0.0096 | 0.753 ± 0.02 | 0.751 ± 0.013 | 0.6633 ± 0.0015 | 0.61 ± 0.0063 | 0.5898 ± 0.0039 | 0.56455 ± 0.00013 | 0.5518 ± 0.0018 | 0.5473 ± 0.0028
100 µM, coculture fibroblast: Hs5 | 0.863 ± 0.032 | 0.739 ± 0.055 | 0.722 ± 0.051 | 0.665 ± 0.049 | 0.631 ± 0.042 | 0.584 ± 0.037 | 0.581 ± 0.038 | 0.558 ± 0.03 | 0.545 ± 0.033
100 µM, coculture fibroblast: Hs27A | 0.852 ± 0.013 | 0.828 ± 0.025 | 0.809 ± 0.029 | 0.786 ± 0.021 | 0.781 ± 0.023 | 0.843 ± 0.043 | 0.772 ± 0.038 | 0.765 ± 0.031 | 0.709 ± 0.037
100 µM, coculture fibroblast: Hs343T | 0.836 ± 0.06 | 0.713 ± 0.049 | 0.648 ± 0.062 | 0.607 ± 0.063 | 0.579 ± 0.049 | 0.549 ± 0.043 | 0.528 ± 0.029 | 0.515 ± 0.027 | 0.509 ± 0.0091
100 µM, coculture fibroblast: WS1 | 0.8181 ± 0.0055 | 0.715 ± 0.011 | 0.673 ± 0.019 | 0.5949 ± 0.0055 | 0.543 ± 0.0091 | 0.514 ± 0.013 | 0.488 ± 0.027 | 0.457 ± 0.021 | 0.442 ± 0.022

± gives the standard deviation of the averaged measurements. Values are relative to the signal before dosing, not to a vehicle control; the signal also falls without drug.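 Fibroblast labels name human fibroblasts: mostly primary ones from tissues such as uterus (C12385, HUF), lung (H6013), bone (Hs27A), adrenal (HADF) and skin (WS1), plus mammary HMF and breast cancer-associated Hs343T. The cancer cells are basal-like or mesenchymal-like triple-negative breast cancer lines. The paper calls a changed response a hit when it shifts by more than 3x the replicate standard deviation. The tissue of the other fibroblasts is not given here.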
